# No constants are given. Whether binding was seen depends on the method and setting. In cells and extracts the contact can be indirect. Some entries that bind do so weakly or less than the wild type.
# By UniProt entry, the sequences of proteins in these tests, tags left out. Residues count along the entry.
# UniProt Q9Y5K6: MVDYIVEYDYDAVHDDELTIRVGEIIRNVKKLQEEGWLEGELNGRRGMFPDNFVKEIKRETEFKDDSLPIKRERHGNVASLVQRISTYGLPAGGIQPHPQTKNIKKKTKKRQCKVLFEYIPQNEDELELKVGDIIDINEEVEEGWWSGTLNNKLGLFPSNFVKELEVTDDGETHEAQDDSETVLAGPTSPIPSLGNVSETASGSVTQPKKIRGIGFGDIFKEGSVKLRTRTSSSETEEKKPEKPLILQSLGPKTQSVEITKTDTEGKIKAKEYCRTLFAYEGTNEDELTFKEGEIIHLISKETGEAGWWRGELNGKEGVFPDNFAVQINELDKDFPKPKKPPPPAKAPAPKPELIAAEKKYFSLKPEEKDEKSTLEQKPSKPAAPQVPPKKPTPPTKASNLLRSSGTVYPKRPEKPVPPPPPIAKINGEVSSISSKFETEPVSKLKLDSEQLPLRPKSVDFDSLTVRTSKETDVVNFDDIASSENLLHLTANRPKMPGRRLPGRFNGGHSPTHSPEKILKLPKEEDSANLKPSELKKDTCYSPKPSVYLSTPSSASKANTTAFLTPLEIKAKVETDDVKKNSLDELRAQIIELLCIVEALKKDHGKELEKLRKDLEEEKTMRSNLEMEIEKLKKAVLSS
# UniProt Q9JLQ0: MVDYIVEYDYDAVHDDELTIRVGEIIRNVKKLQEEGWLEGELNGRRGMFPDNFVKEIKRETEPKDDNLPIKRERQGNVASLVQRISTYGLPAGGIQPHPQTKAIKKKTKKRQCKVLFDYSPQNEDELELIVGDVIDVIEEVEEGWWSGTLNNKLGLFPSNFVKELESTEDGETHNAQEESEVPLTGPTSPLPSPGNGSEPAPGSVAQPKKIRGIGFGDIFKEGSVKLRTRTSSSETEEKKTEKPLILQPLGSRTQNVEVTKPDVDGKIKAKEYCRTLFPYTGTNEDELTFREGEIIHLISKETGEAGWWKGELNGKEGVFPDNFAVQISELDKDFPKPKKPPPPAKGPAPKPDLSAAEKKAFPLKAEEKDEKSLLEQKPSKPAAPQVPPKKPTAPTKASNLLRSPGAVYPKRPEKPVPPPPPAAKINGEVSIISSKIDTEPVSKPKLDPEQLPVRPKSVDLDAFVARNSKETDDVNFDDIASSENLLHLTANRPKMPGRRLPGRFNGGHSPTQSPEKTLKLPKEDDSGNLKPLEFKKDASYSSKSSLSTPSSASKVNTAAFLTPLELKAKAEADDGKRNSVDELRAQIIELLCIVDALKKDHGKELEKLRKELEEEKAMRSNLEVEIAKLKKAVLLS
# UniProt P07333, residues 20-972: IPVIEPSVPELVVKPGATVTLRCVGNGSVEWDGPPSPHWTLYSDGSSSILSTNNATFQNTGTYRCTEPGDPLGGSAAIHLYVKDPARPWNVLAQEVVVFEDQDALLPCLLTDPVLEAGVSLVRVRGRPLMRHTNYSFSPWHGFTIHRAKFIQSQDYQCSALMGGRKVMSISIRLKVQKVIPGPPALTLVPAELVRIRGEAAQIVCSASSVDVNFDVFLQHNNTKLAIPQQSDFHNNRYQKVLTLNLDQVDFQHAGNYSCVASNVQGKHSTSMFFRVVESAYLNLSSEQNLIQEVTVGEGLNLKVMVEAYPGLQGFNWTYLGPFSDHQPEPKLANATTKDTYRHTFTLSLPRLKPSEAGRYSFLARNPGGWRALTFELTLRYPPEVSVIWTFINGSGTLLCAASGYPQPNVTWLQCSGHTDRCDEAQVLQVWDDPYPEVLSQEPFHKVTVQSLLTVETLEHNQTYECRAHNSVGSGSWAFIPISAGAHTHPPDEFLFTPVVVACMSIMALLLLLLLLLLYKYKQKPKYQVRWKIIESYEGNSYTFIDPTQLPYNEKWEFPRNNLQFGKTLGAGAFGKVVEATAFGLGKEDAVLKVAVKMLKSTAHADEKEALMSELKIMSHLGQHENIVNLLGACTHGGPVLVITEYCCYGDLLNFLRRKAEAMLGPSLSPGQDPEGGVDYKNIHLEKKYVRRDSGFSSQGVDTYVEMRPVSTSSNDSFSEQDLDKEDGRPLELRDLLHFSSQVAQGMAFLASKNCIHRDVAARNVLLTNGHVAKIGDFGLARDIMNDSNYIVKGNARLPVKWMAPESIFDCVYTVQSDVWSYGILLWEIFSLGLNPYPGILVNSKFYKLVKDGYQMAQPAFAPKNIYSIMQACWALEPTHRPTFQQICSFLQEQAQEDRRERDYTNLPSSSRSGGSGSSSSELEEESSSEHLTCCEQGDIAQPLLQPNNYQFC
# How the values were obtained:
# [1] = molecular target: T1, endogenous CSF1R (mouse brain) (mouse (endogenous in mouse brain)) (UniProt P09581); test: co-IP; endogenous proteins, mouse brain tissue lysed in TNEN buffer (50 mM Tris-HCl pH 8.0, 150 mM NaCl, 2 mM EDTA, 1% Nonidet P-40); anti-CSF1R or anti-CD93 antibody and Protein A/G MagBeads, 4 °C overnight; blot for CD2AP
# T1 sequence: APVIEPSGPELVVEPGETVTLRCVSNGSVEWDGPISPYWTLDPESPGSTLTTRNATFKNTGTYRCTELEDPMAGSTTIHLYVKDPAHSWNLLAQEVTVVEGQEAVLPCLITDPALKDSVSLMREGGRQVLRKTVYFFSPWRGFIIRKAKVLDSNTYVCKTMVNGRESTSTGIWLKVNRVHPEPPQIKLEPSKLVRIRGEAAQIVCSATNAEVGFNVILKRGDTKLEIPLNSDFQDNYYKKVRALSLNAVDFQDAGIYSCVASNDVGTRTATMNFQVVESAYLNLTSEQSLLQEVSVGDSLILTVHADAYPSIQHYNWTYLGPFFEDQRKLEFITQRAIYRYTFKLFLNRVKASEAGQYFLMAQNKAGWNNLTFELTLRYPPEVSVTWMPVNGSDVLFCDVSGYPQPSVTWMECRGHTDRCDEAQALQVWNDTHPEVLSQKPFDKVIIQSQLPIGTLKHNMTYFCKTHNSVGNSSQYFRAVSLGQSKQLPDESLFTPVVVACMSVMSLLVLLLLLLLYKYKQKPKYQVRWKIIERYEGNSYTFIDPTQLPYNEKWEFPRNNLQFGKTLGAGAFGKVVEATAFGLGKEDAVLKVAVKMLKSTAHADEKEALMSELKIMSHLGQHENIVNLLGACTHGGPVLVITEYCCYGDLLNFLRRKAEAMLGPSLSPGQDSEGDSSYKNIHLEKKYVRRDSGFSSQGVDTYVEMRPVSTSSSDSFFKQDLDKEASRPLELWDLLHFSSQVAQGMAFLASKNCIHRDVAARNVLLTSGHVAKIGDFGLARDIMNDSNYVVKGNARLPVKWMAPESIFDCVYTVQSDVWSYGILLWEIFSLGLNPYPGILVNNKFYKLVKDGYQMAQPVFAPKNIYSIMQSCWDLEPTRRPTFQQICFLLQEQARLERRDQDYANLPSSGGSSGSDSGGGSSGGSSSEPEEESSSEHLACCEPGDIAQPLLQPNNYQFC
# [2] = molecular target: T2, endogenous CD93 (mouse brain) (mouse (endogenous in mouse brain)) (UniProt O89103); test: as above
# T2 sequence: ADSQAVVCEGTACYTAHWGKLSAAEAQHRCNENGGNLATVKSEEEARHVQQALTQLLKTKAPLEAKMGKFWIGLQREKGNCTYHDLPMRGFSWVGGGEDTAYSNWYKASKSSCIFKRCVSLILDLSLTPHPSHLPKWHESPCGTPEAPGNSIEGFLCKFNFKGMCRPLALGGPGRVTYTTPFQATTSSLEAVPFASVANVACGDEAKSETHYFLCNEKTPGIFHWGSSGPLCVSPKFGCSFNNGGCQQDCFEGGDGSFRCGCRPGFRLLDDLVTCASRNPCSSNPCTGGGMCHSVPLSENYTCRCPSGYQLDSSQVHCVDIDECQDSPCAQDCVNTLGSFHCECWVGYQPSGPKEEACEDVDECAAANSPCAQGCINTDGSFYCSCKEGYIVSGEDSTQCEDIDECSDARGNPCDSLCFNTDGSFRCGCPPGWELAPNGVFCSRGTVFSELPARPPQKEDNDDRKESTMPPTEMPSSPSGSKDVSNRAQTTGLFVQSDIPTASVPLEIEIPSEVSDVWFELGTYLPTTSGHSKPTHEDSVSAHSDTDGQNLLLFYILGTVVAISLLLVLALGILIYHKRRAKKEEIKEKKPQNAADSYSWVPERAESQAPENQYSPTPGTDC
# CD2AP-MYC = CD2AP-MYC (UniProt Q9Y5K6); test: co-IP; HEK293T transfected with CD2AP-MYC with or without CSF1R-HA, 24 h; TNEN buffer (50 mM Tris-HCl pH 8.0, 150 mM NaCl, 2 mM EDTA, 1% Nonidet P-40); anti-MYC antibody and Protein A/G MagBeads, 4 °C overnight; blot with anti-HA
Substance,binding [1],binding [2],binding (CD2AP-MYC)
endogenous CD2AP (mouse brain) (from UniProt Q9JLQ0 1-637),binds,no binding,
CSF1R-HA (from UniProt P07333 20-972) (receptor),,,binds

# From paper PMC11658232
